Patent publication US8030282B2, “Motilide polymorphs” (priority 2006, dated 2011)
Some entries share one result that the patent states for a list of compounds. Some compounds share one range, which may span the group rather than tell each member.

Assay: Gravimetric vapor sorption (GVS) moisture sorption isotherm
Format: physicochemical
Conditions: 0 to 90% RH, 25° C.
Description: GVS data was also collected by Pharmorphix, Ltd. All samples were run on a Hiden IGASorp moisture sorption analyzer running CFRSorp software. Sample sizes were typically 10 mg. A moisture adsorption-desorption isotherm was performed as outlined below, with two scans giving one complete cycle. All samples were loaded and unloaded at typical ambient (room) humidity and temperature (40% RH, 25° C.). All samples were analyzed by XRPD after GVS analysis. The standard isotherm was performed at 25° C. at 10% RH intervals over a 0 to 90% RH range. [table]

Weight increase / mass uptake between 0 and 90% RH, 6-10%:
CC[C@H]1OC(=O)[C@H](C)[C@@H](O[C@H]2C[C@@](C)(OC)[C@@H](O)[C@H](C)O2)[C@H](C)[C@@H](O[C@@H]2O[C@H](C)C[C@H](N(C)C(C)C)[C@H]2O)[C@](C)(O)C[C@@H](C)[C@H](OCC(=O)NC)[C@H](C)[C@@H](O)[C@]1(C)O [Polymorph VI]
CC[C@H]1OC(=O)[C@H](C)[C@@H](O[C@H]2C[C@@](C)(OC)[C@@H](O)[C@H](C)O2)[C@H](C)[C@@H](O[C@@H]2O[C@H](C)C[C@H](N(C)C(C)C)[C@H]2O)[C@](C)(O)C[C@@H](C)[C@H](OCC(=O)NC)[C@H](C)[C@@H](O)[C@]1(C)O [Polymorph I]
CC[C@H]1OC(=O)[C@H](C)[C@@H](O[C@H]2C[C@@](C)(OC)[C@@H](O)[C@H](C)O2)[C@H](C)[C@@H](O[C@@H]2O[C@H](C)C[C@H](N(C)C(C)C)[C@H]2O)[C@](C)(O)C[C@@H](C)[C@H](OCC(=O)NC)[C@H](C)[C@@H](O)[C@]1(C)O [Polymorph II]
